According to PubChem BioAssay AID248 (DTP/NCI, 2004):
The list shows only some results of the screen, not a fair sample: it is rich in T/C values a quarter to a half above the control, in often repeated tests (any T/C) and in doses without a T/C. Other doses and runs of a compound stand elsewhere. T/C: endpoint of the treated group in % of that of the vehicle group. Some doses have a count of surviving animals in place of a T/C: the source files T/C as zero there, which appears to mark a toxic dose or a test without result, not a measured value. Some survivor counts are full or nearly so, which does not show that the dose was tolerated: the source hardly ever lists a survival T/C far under the control, and the zero likely stands for such cases as well. Survivors were counted at the toxicity check, usually on the fifth day, unless a day is given; later deaths do not show. Schedule codes are those of the source, read here as Q, the interval in days (D) or hours (H), X, the number of doses. Some schedules carry Z or #; the key to these is not given. For survival time, the PubChem record calls one and a half times the control and up active, and a quarter to a half above the control has no call in these data; cut-offs in other NCI protocols can differ. Some entries were tested several times; the values are given in rising order. Some T/C values are followed by the survivors on the day toxicity was checked, most often the fifth; without a count, all were alive then.

System: L1210 leukemia ip in BDF1 mice, survival T/C
Assay: NCI In Vivo Anticancer Drug Screen. Data for tumor model L1210 Leukemia (intraperitoneal) in B6D2F1 (BDF1) mice
Settings: T/C endpoint: mean survival time, higher T/C = longer survival
[1] = dose: 8.0 mg/kg/injection, schedule: Q04DX003 (ip), vehicle: water
[2] = dose: 16.0 mg/kg/injection, schedule: Q04DX003 (ip), vehicle: water

O=NN(CCCl)C(=O)Nc1cc(NC(=O)N(CCCl)N=O)cc(C(=O)O)c1
T/C (dose: 0.79 mg/kg/injection, schedule: Q01DX009 (ip), vehicle: saline): 131 % of control
T/C (dose: 1.1 mg/kg/injection, schedule: Q01DX001 (ip), vehicle: saline): 143 % of control
T/C (dose: 1.2 mg/kg/injection, schedule: Q01DX009 (ip), vehicle: Klucel (hydroxypropylcellulose) (HPC)): 131 % of control
T/C (dose: 1.9 mg/kg/injection, schedule: Q01DX009 (ip), vehicle: Klucel (hydroxypropylcellulose) (HPC)): 142 % of control
T/C (dose: 1.9 mg/kg/injection, schedule: Q04DX003 (ip), vehicle: saline): 141 % of control
T/C (dose: 2.5 mg/kg/injection, schedule: Q01DX001 (ip), vehicle: carboxymethylcellulose (CMC)): 126 % of control
T/C (dose: 2.5 mg/kg/injection, schedule: Q01DX009 (ip), vehicle: Klucel (hydroxypropylcellulose) (HPC)): 126 % of control
T/C (dose: 2.9 mg/kg/injection, schedule: Q04DX003 (ip), vehicle: saline): 139 % of control
T/C (dose: 3.9 mg/kg/injection, schedule: Q01DX001 (ip), vehicle: saline with Tween-80): 133 % of control
T/C (dose: 4.4 mg/kg/injection, schedule: Q04DX003 (ip), vehicle: saline): 142 % of control
T/C (dose: 5.0 mg/kg/injection, schedule: Q01DX001 (ip), vehicle: carboxymethylcellulose (CMC)): 125 % of control
T/C (dose: 6.0 mg/kg/injection, schedule: Q01DX001 (ip), vehicle: saline): 147 % of control
T/C (dose: 6.6 mg/kg/injection, schedule: Q01DX009 (ip), vehicle: Klucel (hydroxypropylcellulose) (HPC)): 144 % of control
T/C (dose: 18.0 mg/kg/injection, schedule: Q01DX001 (ip), vehicle: saline): 139 % of control
survivor count (dose: 30.0 mg/kg/injection, schedule: Q04DX003 (ip), vehicle: saline): 6 of 6
T/C (dose: 39.0 mg/kg/injection, schedule: Q01DX001 (ip), vehicle: saline with Tween-80): 148 % of control
T/C (dose: 40.0 mg/kg/injection, schedule: Q01DX001 (ip), vehicle: saline): 130 % of control
survivor count (dose: 40.0 mg/kg/injection, schedule: Q01DX009 (ip), vehicle: Klucel (hydroxypropylcellulose) (HPC)): 3 of 6
survivor count (dose: 60.0 mg/kg/injection, schedule: Q01DX001 (ip), vehicle: saline): 2 of 6
survivor count (dose: 60.0 mg/kg/injection, schedule: Q01DX009 (ip), vehicle: Klucel (hydroxypropylcellulose) (HPC)): 1 of 6

CN1C(=O)C(C)(C)C(=O)C1(C)C
survivor count (dose: 100.0 mg/kg/injection, schedule: Q01DX001 (ip), vehicle: saline): 6 of 6

COc1ccc(NC(=O)Oc2ccc(Cl)cc2Cl)c(OC)c1
survivor count (dose: 400.0 mg/kg/injection, schedule: Q01DX009 (ip), vehicle: Klucel (hydroxypropylcellulose) (HPC)): 3 of 6

COc1cccc(/C=C/[N+](=O)[O-])c1
survivor count (dose: 100.0 mg/kg/injection, schedule: Q04DX003 (ip), vehicle: Klucel (hydroxypropylcellulose) (HPC)): 3 of 6
survivor count (dose: 360.0 mg/kg/injection, schedule: Q04DX003 (ip), vehicle: saline with Tween-80): 0 of 6

NC(N)=N/N=C/c1ccccn1
survivor count (dose: 240.0 mg/kg/injection, schedule: Q01DX Z (ip), vehicle: saline): 0 of 6
survivor count (dose: 480.0 mg/kg/injection, schedule: Q01DX Z (ip), vehicle: saline): 0 of 6

CCCCOP(=O)(OCCCC)C(O)CCC (configuration not stated)
survivor count (dose: 400.0 mg/kg/injection, schedule: Q01DX001 (ip), vehicle: saline with Tween-80): 6 of 6
survivor count (dose: 400.0 mg/kg/injection, schedule: Q04DX003 (ip), vehicle: saline with Tween-80): 5 of 6

COc1cccc2c1C(=O)c1c(O)c3c(c(O)c1C2=O)C[C@@](O)(/C(C)=N\O)C[C@@H]3OC1CC(N)C(O)C(C)O1 (some centres not stated)
survivor count (dose: 0.25 mg/kg/injection, schedule: Q04DX003 (ip), vehicle: water): 6 of 6
survivor count (dose: 0.5 mg/kg/injection, schedule: Q04DX003 (ip), vehicle: water): 6 of 6
survivor count (dose: 1.0 mg/kg/injection, schedule: Q04DX003 (ip), vehicle: water): 6 of 6
survivor count (dose: 2.0 mg/kg/injection, schedule: Q04DX003 (ip), vehicle: water): 6 of 6
survivor count (dose: 4.0 mg/kg/injection, schedule: Q04DX003 (ip), vehicle: water): 6 of 6
T/C [1]: 129 % of control
survivor count [1]: 6 of 6
T/C [2]: 126 % of control
survivor count [2]: 6 of 6
T/C (dose: 32.0 mg/kg/injection, schedule: Q04DX003 (ip), vehicle: water): 127 % of control

CCCC(=O)OCC1OC(n2cnc3c(=S)nc(N)[nH]c32)C(OC(=O)CCC)C1OC(=O)CCC (configuration not stated)
T/C (dose: 3.5 mg/kg/injection, schedule: Q01DX Z (ip), vehicle: carboxymethylcellulose (CMC)): 132 and 135 % of control
T/C (dose: 5.0 mg/kg/injection, schedule: Q01DX Z (ip), vehicle: carboxymethylcellulose (CMC)): 149 % of control
T/C (dose: 5.3 mg/kg/injection, schedule: Q01DX Z (ip), vehicle: carboxymethylcellulose (CMC)): 138 % of control
T/C (dose: 5.4 mg/kg/injection, schedule: Q01DX Z (ip), vehicle: carboxymethylcellulose (CMC)): 130 % of control
T/C (dose: 8.0 mg/kg/injection, schedule: Q01DX Z (ip), vehicle: carboxymethylcellulose (CMC)): 149 % of control
T/C (dose: 9.0 mg/kg/injection, schedule: Q01DX Z (ip), vehicle: carboxymethylcellulose (CMC)): 138 % of control
T/C (dose: 12.0 mg/kg/injection, schedule: Q01DX Z (ip), vehicle: carboxymethylcellulose (CMC)): 132, 144, 150, 162 % of control
T/C (dose: 15.0 mg/kg/injection, schedule: Q01DX Z (ip), vehicle: carboxymethylcellulose (CMC)): 141 % of control
T/C (dose: 16.2 mg/kg/injection, schedule: Q01DX Z (oral), vehicle: carboxymethylcellulose (CMC)): 125 % of control
T/C (dose: 17.0 mg/kg/injection, schedule: Q01DX Z (ip), vehicle: carboxymethylcellulose (CMC)): 148 % of control [5 of 6 alive]
T/C (dose: 25.0 mg/kg/injection, schedule: Q01DX Z (ip), vehicle: carboxymethylcellulose (CMC)): 138 and 148 % of control
T/C (dose: 42.0 mg/kg/injection, schedule: Q01DX Z (ip), vehicle: carboxymethylcellulose (CMC)): 144 % of control
T/C (dose: 45.0 mg/kg/injection, schedule: Q01DX Z (oral), vehicle: carboxymethylcellulose (CMC)): 146 % of control
T/C (dose: 75.0 mg/kg/injection, schedule: Q01DX Z (oral), vehicle: carboxymethylcellulose (CMC)): 130 % of control
